Measured values taken from US4560692A, “4-Piperidino-2-phenylquinolines” (Hoffmann-La Roche Inc., priority 1984, dated 1985).

Target: ^3 H-Diazepam binding, rat brain cortical fragments
Test: ^3 H-Diazepam binding assay
Conditions: standard drugs, inhibition of ^3 H-Diazepam binding by 50%
Method: Rat brain cortical fragments are prepared and the binding procedures performed as described by Mohler and Okada (Life Sciences, 20, 2101, 1977) except that Tris buffer is substituted for Krebs buffer. Drugs are assayed in triplicate. Radioactivity is measured by liquid scintillation counting.

## CN1C(=O)CN=C(c2ccccc2)c2cc(Cl)ccc21 [Diazepam, reference compound]
  IC50: 5 nM
